# Laboratory results: patent publication US20160015669A1, “COMPOUND, 1, 3-DIOLEIN-2-LINOLEIN, AND PHARMACEUTICAL PREPARATION AND USE THEREOF” (ZHEJIANG KANGLAITE GROUP CO., LTD., priority 2014, published 2016)
# How the values were obtained:
# Assay in all cases: MTT method, inhibition of cell growth in vitro
# Format in all cases: cell-based
# [1] = system: A549 (human lung cancer cells); settings: 48 h
# From the text: (§1) A. Experimental Materials and the Preparation Thereof: • (1) Cell lines: PANC-1 (human pancreatic cancer cells), SKOV3 (human ovarian cancer cells), MCF-7 (human breast cancer cells), SMMC-7721 (human liver cancer cells), A549 (human lung cancer cells), BGC-823 (human gastric cancer cells), COLO205 (human colonic cancer cells), storaged and passaged maintainably in Research and Evaluation Center for Pharmacology, Shanghai Institute of Pharmaceutical Industry; • (2) DMEM complete medium supplied with 10% newborn calf serum (GIBCO BRL), 1% of penicillin (100 U/mL)+streptomycin (100 μg/mL); • (3) 0.25% trypsin solution, purchased from Invitrogen Corp. and storaged at −20; • (4) Phosphate buffer (PBS): NaCl 8 g, KCl 0.2 g, Na2HPO4 1.15 g and KH2PO4 0.2 g, dissolved in 1 L double-distilled water and autoclaved at 121 for 20 min, then storaged at 4; • (5) MTT (AMRESCO) solution: 5 mg/ml in PBS; • (6) Formazan crystal dissolving solution: SDS 10 g, isobutanol 5 ml and concentrated hydrochloric acid 0.1 ml, dissolved in 100 ml of deionized double distilled water.
# (§2) The inhibition effects of the compound of formula (I) on the above-mentioned cell lines were detected by using MTT method. The specific procedures were as follows:
# (§3) (1) Cell culture: (a) Storaged cells were taken out from the liquid nitrogen, thawed quickly in a 37 water bath, then aseptically transferred into 6 ml of cellular medium in a 10 ml centrifugal tube, centrifuged at 1000 rpm for 5 min. […]
# (§4) (4) Cells in a logarithmic growth stage were trypsinized and washed, then re-suspended in the medium containing 10% calf serum. The number of living cells was counted in Trypan blue dye exclusion method and cell suspensions were adjusted into a density of 2×10^5 cell/ml. […]
# [2] = system: SKOV3 (human ovarian cancer cells); settings: SK-OV-3, 48 h
# From the text: as §1, §2, §3, §4
# [3] = system: MCF-7 (human breast cancer cells); settings: MCF7, MCF-7, MTT, 48 h
# From the text: as §1, §2, §3, §4
smiles,measurement,setting,value
"CC(=O)O[C@H]1C(=O)[C@@]2(C)[C@H]([C@H](OC(=O)c3ccccc3)[C@]3(O)C[C@H](OC(=O)[C@H](O)[C@@H](NC(=O)c4ccccc4)c4ccccc4)C(C)=C1C3(C)C)[C@]1(OC(C)=O)CO[C@@H]1C[C@@H]2O [Taxol, reference compound]",IC50,[1],0.49 µg/mL
same,IC50,[2],0.38 µg/mL
same,IC50,[3],0.34 µg/mL
